Results deposited as PubChem BioAssay AID1508597 (Cure First, 2020).
Shown is a random part of the about 2,100 reagents, under one of the conditions tested. 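Calls flag viability under 80% in either arm, not effects specific to rucaparib; the reference for percent is not stated.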 A number with no mark means an inactive call. A reagent listed more than once was tested more than once; the source does not tell the runs apart. The record does not give: the 100% reference.

Assay: 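Knock-downs altering ovarian cancer cell survival with or without PARP inhibitor rucaparib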 (primary screen)
System: human ovarian carcinoma lines grown from tumours: OCI-P5x (papillary serous) and OCI-C5x (clear cell)
Reagents: siRNA pool against human genes, 1.25 pmol siRNA per well
Time to read-out: 72 h or 96 h, depending on the cell culture
Conditions: rucaparib 20 µM (about IC30) or vehicle, present until read-out
Rucaparib or vehicle: Rucaparib
Cell line: OCI-P5x (serous)
Measured: 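ATP luminescence measured at 72 or 96 h according to the culture, then normalised and expressed as percent viability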
Reading the numbers: viability, normalised: higher = more viable cells remaining
Call rule: 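Active when normalised viability falls below 80 percent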
Meaning of the calls: active = viability under 80%; inactive = viability 80% or more

no.	Gene	PubChem SID	technical replicate	viability, normalised (%)
1	DDR1	SID405527857	1	93
2	DDR1	SID405527857	2	80.4
3	DDR1	SID405527857	3	80.8
4	DYRK1B	SID405527423	1	81.3
5	DYRK1B	SID405527423	2	86.3
6	DYRK1B	SID405527423	3	75 (active)
7	RPA1	SID405527259	1	48.7 (active)
8	RPA1	SID405527259	1	89.1
9	RPA1	SID405527259	2	57.4 (active)
10	RPA1	SID405527259	2	56.7 (active)
11	RPA1	SID405527259	3	68.7 (active)
12	RPA1	SID405527259	3	56.2 (active)
13	GLI3	SID405526817	1	55.6 (active)
14	GLI3	SID405526817	2	65.7 (active)
15	GLI3	SID405526817	3	58.5 (active)
16	HDAC8	SID405526846	1	82.3
17	HDAC8	SID405526846	2	80.1
18	HDAC8	SID405526846	3	75.8 (active)
19	CARM1	SID405528065	1	39.4 (active)
20	CARM1	SID405528065	2	45.2 (active)
21	CARM1	SID405528065	3	65.4 (active)
22	PRMT5	SID405527203	1	49.6 (active)
23	PRMT5	SID405527203	2	47.7 (active)
24	PRMT5	SID405527203	3	45 (active)
25	TOP2A	SID405528356	1	79.7 (active)
26	TOP2A	SID405528356	2	73 (active)
27	TOP2A	SID405528356	3	68.3 (active)
28	TSSK6	SID405527790	1	91.5
29	TSSK6	SID405527790	2	109
30	TSSK6	SID405527790	3	94.8
31	ULK1	SID405528541	1	62.9 (active)
32	ULK1	SID405528541	2	85.1
33	ULK1	SID405528541	3	50.5 (active)
34	ZNF451	SID405526656	1	47.2 (active)
35	ZNF451	SID405526656	2	61.1 (active)
36	ZNF451	SID405526656	3	67.8 (active)
37	PRKACA	SID405527796	1	75.6 (active)
38	PRKACA	SID405527796	2	91.7
39	PRKACA	SID405527796	3	69.5 (active)
40	POLR3K	SID405528571	1	63.7 (active)
41	POLR3K	SID405528571	2	52.3 (active)
42	POLR3K	SID405528571	3	59.8 (active)
43	DNAJC2	SID405528231	1	58 (active)
44	DNAJC2	SID405528231	2	53.5 (active)
45	DNAJC2	SID405528231	3	53.6 (active)
46	YY1	SID405526638	1	62.3 (active)
47	YY1	SID405526638	1	48.2 (active)
48	YY1	SID405526638	2	60.3 (active)
49	YY1	SID405526638	2	70.1 (active)
50	YY1	SID405526638	3	54.7 (active)
51	YY1	SID405526638	3	70.2 (active)
52	NOG	SID405527085	1	32.9 (active)
53	NOG	SID405527085	2	45.5 (active)
54	NOG	SID405527085	3	44.1 (active)
55	JMJD8	SID405526920	1	58.4 (active)
56	JMJD8	SID405526920	2	58.5 (active)
57	JMJD8	SID405526920	3	79.5 (active)
